Source: US8586548B2, “NAP alpha-aminoisobutyric acid analog with neuroprotective activity” (Ramot at Tel-Aviv University, Ltd., priority 2009, dated 2013)
Some of these results come from one statement about several compounds together.

Tested on: cerebral cortical cultures derived from newborn rats
Assay: Neuronal survival in cerebral cortical cultures treated with beta-amyloid peptide (1-42)
Type: cell-based, rat
Conditions: FIGS. 1 and 2
Method: All peptides were dissolved in distilled sterile water to a concentration of 1 mM and then diluted in water in 1:10 steps up to the required concentration. The beta-amyloid peptide (1-42) was obtained from American Peptides, Calif., USA.
Cerebral cortical cultures derived from newborn rats were used for neuron survival assays. For mixed neuroglial cultures, neurons 300,000 cells/35 mm dish were seeded on 8-day-old astrocytes prepared as described (Bassan et al., supra (1999); Brenneman et al., supra (2004)). Cells were allowed to grow for one week at 37° C. 10% CO2 before experiments were performed. Four days after neuronal plating, cultures were given their respective treatment and assayed for neuronal survival after an additional 5 day incubation period.
The culture medium was removed and cells were washed twice with phosphate buffered saline (PBS). 1.5 ml of 3% glutaraldehyde (Fluka Biochemika, Steinheim, Germany) in 0.1 M cacodylic acid pH 7.2 (Fluka Biochemika, Steinheim, Germany) was added for two hours. The cells were then washed with PBS and 2 ml of 0.15 M cacodylic acid pH 7.2 was added. […] Fifty fields were counted in each dish (Zemlyak et al., supra (2000)).
The number of surviving neurons was assessed in cerebral cortical cultures derived from newborn rats using the beta-amyloid peptide (1-42), an Alzheimer's disease-associated toxin, at 2.5 μM. […]

With “NAXaaVSIXaaQ [Alpha-aminoisobutyric NAP, both prolines of NAP substituted]” as the substance, how does the in vitro potency read?
Its in vitro potency is 10^−16-10^−15 M.
